The record followed here is US20250136720A1.

Sequences of proteins named here, by UniProt entry; tags and fusion partners are left off. Residues count along the entry.
UniProt Q07011, residues 24-186: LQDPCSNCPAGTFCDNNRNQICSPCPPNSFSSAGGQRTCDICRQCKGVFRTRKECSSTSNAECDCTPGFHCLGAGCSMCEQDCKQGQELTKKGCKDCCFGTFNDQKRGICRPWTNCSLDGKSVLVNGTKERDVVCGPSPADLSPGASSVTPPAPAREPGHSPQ

Results are given in words; binding and its absence hold for the method and conditions named. Some binding calls cover weakened binding; strength is not graded here.

In experiment [1] the target is Cynomolgus CD137 (4-1BB, TNFRSF9) (cynomolgus). The experiment can be described thus: flow cytometry, CHO cells expressing cynomolgus CD137, PE anti-human IgG-Fc.
Experiment [2] concerns the target biotinylated huCD137-6xHis (human) (UniProt Q07011). The experiment can be described thus: ELISA, Fab captured by anti-Fd, biotinylated huCD137 (y axis unlabelled, 0.00-0.75; no negative control on the sheet). A general note: ELISA stands for enzyme-linked immunosorbent assay.
Experiment [3] has the same target. Description: ELISA, Fab captured by anti-Fd, biotinylated huCD137 (y axis unlabelled, 0.00-1.75; no negative control on the sheet).

B1: CD137 #B28 (antibody, human IgG1, V domains shown)
VH: QVQLQQSGPQLIRPGASVKISCKASGYSFTGYWIHWVKQRPGQGLEWIGMIDPSDSETRLNQKFKDKATLTVDKSSTTAYMQLSSPTSEDSAVFYCARYRNYGYDGFAHWGQGTLVTVSA
VL: DIVMTQSPSSLTVTAGEKVTMSCKSSQSLLNSGNEKNYLAWYQQKPGQPPKLLIYWASTRESGVPDRFTGSGSGTDFTLTISSVQTEDLAVYHCQNDYSLPLTFGAGTKLELK
Regarding B1, the binding entry in experiment [1] was “binds”.

B2: CD137 #B31 (antibody, human IgG1, V domains shown)
VH: QVQLQQSGPQLIRPGASVKISCKASGYSFTGYWIHWVKQRPGQGLEWIGMIDPSDSETRLNQKFKDKATLTVDKSSTTAYMQLSSPTSEDSAVFYCARYRNYGYDGFAHWGQGTLVTVSA
VL: DIVMTQSPSSLTVTAGEKVTMSCKSSQSLLNSGNEKNYLAWYQQKPGQPPKLLIYWASTRESGVPDRFTGSGSGTDFTLTISSVQTEDLAVYHCQNDYSLPLTFGAGTKLELK
Consider B2, for which the binding result in experiment [1] is recorded as “binds”.

B3: CD137 #B30 (antibody, human IgG1, V domains shown)
VH: QVQLQQSGPQLIRPGASVKISCKASGYSFTGYWIHWVKQRPGQGLEWIGMIDPSDSETRLNQKFKDKATLTVDKSSTTAYMQLSSPTSEDSAVFYCARYRNYGYDGFAHWGQGTLVTVSA
VL: DIVMTQSPSSLTVTAGEKVTMSCKSSQSLLNSGNEKNYLAWYQQKPGQPPKLLIYWASTRESGVPDRFTGSGSGTDFTLTISSVQTEDLAVYHCQNDYSLPLTFGAGTKLELK
On to B3, for which, in experiment [1], the binding entry was “binds”.

B4: CD137 #B13 (antibody, human IgG1, V domains shown)
VH: QVQLQQPGAELVKPGASVKLSCKASGYTFTNFWINWVKQRPGQALEWIGNIYPGNDNTNYNGNFKTKATLTVDRSSSTAYMHLSSLTSKDSAVYYCARGQLGLDYWGQGTTLTVSS
VL: DILLTQSPAILSVSPGERVSFSCRASQNIGTTIHWYHQRTNGSPRLLIKFASESISGIPSRFSGSGSGTDFTLSINSVESEDFADYYCQQSNSWPFTFGSGTKLEIK
Turning to B4, the binding entry in experiment [1] was “binds”.

B5: B21-51 (Fab, V domains shown)
VH: EVQLVESGGGLVQPGGSLRLSCAASGFTFSDFYMAWVRQAPGKGLEWVANINYDGSSTYYLDSLKSRFIISRDNAKNILYLQMSSLRAEDTAVYYCAREGDEGWYFDVWGQGTTVTVSS
VL: DIQMTQSPSSLSASVGDRVTITCKASQDVSTAVAWYQQKPGKAPKLLIYSASYRYTGVPDRFSGSGSGTDFTLTISSLQPEDFAVYYCQQHYSNPWTFGQGTKLEIK
For B5, in experiment [2], the binding entry was “binds”.

B6: B21-61 (Fab, V domains shown)
VH: EVQLVESGGGLVQPGGSLRLSCAASGFTFSDFYMAWVRQAPGKGLEWVANINYDGSSTYYLDSLKSRFTISRDNAKNSLYLQMQSLRAEDTAVYYCAREGDEGWYFDVWGQGTTVTVSS
VL: DIQMTQSPSSLSASVGDRVSITCKASQDVSTAVAWYQQKPGKAPKLLIYSASYRYTGVPDRFSGSGSGTDFTLTISSLQPEDFATYYCQQHYSNPWTFGQGTKLEIK
Take B6: the binding entry in experiment [2] is “binds”.

B7: B21-v15 (Fab, V domains shown)
VH: EVQLVESGGGLVQPGGSLRLSCAASGFTFSDFYMSWVRQAPGKGLEWVANINYDASSTYYLDSLKGRFTISRDNAKNILYLQMNSLRAEDTAVYYCAREGDEGWYFDVWGQGTTVTVSS
VL: DIQMTQSPSSLSASVGDRVTITCKASQDISTALAWYQQKPGKAPKLLIYAASYLQSGVPSRFSGSGSGTDFTLTISSLQPEDFAVYYCQQHYSNPWTFGQGTKLEIK
In the case of B7, in experiment [3], the binding result was “binds”.

B8: B21-v18 (Fab, V domains shown)
VH: EVQLVESGGGLVQPGGSLRLSCAASGFTFSDFYMSWVRQAPGKGLEWVANINYEGSSKYYVDSLKGRFTISRDNAKNILYLQMNSLRAEDTAVYYCAREGDEGWYFDVWGQGTTVTVSS
VL: DIQMTQSPSSLSASVGDRVTITCRASQSVSTALAWYQQKPGKAPKLLIYAASSRYSGVPSRFSGSGSGTDFTLTISSLQPEDFAVYYCQQHYSNPWTFGQGTKLEIK
Consider B8, for which the binding entry in experiment [3] is given as “binds”.

B9: B21-46 (Fab, V domains shown)
VH: EVQLVESGGGLVQPGGSLRLSCAASGFTFSDFYMAWVRQAPGKGLEWVANINYDGSSTYYLDSLKSRFTISRDNAKNSLYLQMNSLRAEDTAVYYCAREGDEGWYFDVWGQGTTVTVSS
VL: DIQMTQSPSSLSASVGDRVSITCKASQDVSTAVAWYQQKPGKAPKLLIYSASYRYTGVPDRFSGSGSGTDFTLTISSLQPEDFAVYYCQQHYSNPWTFGQGTKLEIK
On to B9, for which the binding entry in experiment [2] is listed as “binds”.

B10: B21-72 (Fab, V domains shown)
VH: EVQLVESGGGLVQPGGSLRLSCAASGFTFSDFYMAWVRQAPGKGLEWVANINYDGSSTYYLDSLKSRFTISRDNAKNILYLQMSSLRAEDTAVYYCAREGDEGWYFDVWGQGTTVTVSS
VL: DIQMTQSPSSLSASVGDRVSITCKASQDVSTAVAWYQQKPGKAPKLLIYSASYRYTGVPDRFSGSGSGTDFTLTISSLQPEDFATYYCQQHYSNPWTFGQGTKLEIK
Turning to B10, the binding result in experiment [2] is reported as “binds”.

B11: B21-47 (Fab, V domains shown)
VH: EVQLVESGGGLVQPGGSLRLSCAASGFTFSDFYMAWVRQAPGKGLEWVANINYDGSSTYYLDSLKSRFIISRDNAKNILYLQMNSLRAEDTAVYYCAREGDEGWYFDVWGQGTTVTVSS
VL: DIQMTQSPSSLSASVGDRVTITCKASQDVSTAVAWYQQKPGKAPKLLIYSASYRYTGVPDRFSGSGSGTDFTLTISSLQPEDFATYYCQQHYSNPWTFGQGTKLEIK
Regarding B11, the binding entry in experiment [2] is “binds”.

B12: B21-v14 (Fab, V domains shown)
VH: EVQLVESGGGLVQPGGSLRLSCAASGFTFSDFYMSWVRQAPGKGLEWVANINYDASSTYYVDSLKSRFTISRDNAKNILYLQMNSLRAEDTAVYYCAREGDEGWYFDVWGQGTTVTVSS
VL: DIQMTQSPSSLSASVGDRVTITCKASQDVSSAVAWYQQKPGKAPKLLIYSASYLQSGVPSRFSGSGSGTDFTLTISSLQPEDFAVYYCQQHYSNPWTFGQGTKLEIK
Turning to B12, the binding entry in experiment [3] is “binds”.

B13: B21-48 (Fab, V domains shown)
VH: EVQLVESGGGLVQPGGSLRLSCAASGFTFSDFYMAWVRQAPGKGLEWVANINYDGSSTYYLDSLKSRFIISRDNAKNILYLQMQSLRAEDTAVYYCAREGDEGWYFDVWGQGTTVTVSS
VL: DIQMTQSPSSLSASVGDRVSITCKASQDVSTAVAWYQQKPGKAPKLLIYSASYRYTGVPSRFSGSGSGTDFTLTISSLQPEDFAVYYCQQHYSNPWTFGQGTKLEIK
For the molecule B13, the binding entry in experiment [2] is on record as “binds”.

B14: B21-69 (Fab, V domains shown)
VH: EVQLVESGGGLVQPGGSLRLSCTASGFTFSDFYMAWVRQAPGKGLEWVANINYDGSSTYYLDSLKSRFTISRDNAKNILYLQMNSLRAEDTAVYYCAREGDEGWYFDVWGQGTTVTVSS
VL: DIQMTQSPSSLSASVGDRVSITCKASQDVSTAVAWYQQKPGKAPKLLIYSASYRYTGVPSRFSGSGSGTDFTLTISSLQPEDFAVYYCQQHYSNPWTFGQGTKLEIK
As to B14, in experiment [2], the binding result is listed as “binds”.

B15: B21-68 (Fab, V domains shown)
VH: EVQLVESGGGLVQPGGSLRLSCAASGFTFSDFYMAWVRQAPGKGLEWVANINYDGSSTYYLDSLKSRFTISRDNAKNILYLQMQSLRAEDTAVYYCAREGDEGWYFDVWGQGTTVTVSS
VL: DIQMTQSPSSLSASVGDRVTITCKASQDVSTAVAWYQQKPGKAPKLLIYSASYRYTGVPSRFSGSGSGTDFTLTISSLQPEDFATYYCQQHYSNPWTFGQGTKLEIK
Regarding B15, the binding result in experiment [2] is listed as “binds”.

B16: CD137 #B27 (antibody, human IgG1, V domains shown)
VH: QVQLQQSGAELVRPGASVKISCKAFGYTFTNHHINWVKQRPGQGLDWIGYINPYNDYSGYNQKFKGRATLTVDKSSNTAYMELSSLTSEDSAVYYCATPGTWEGYYFDYWGQGTTLTVSS
VL: DVVMTQTPLSLPVSLGDQASISCRSSQSLVHSNGNTYLEWYLQKPGQSPKVLIYMVSNRFSGVPDRFSGSGSGTDFTLKISRVEAEDLGVYYCFQGSHIPLTFGAGTKLELK
On to B16, for which the binding result in experiment [1] is given as “binds”.

B17: CD137 #B19 (antibody, human IgG1, V domains shown)
VH: QVQLKQSGPGLVPPSQSLSITCTVSGFSLSSYGVHWVRQSPGKGLEWLGVIWSGGNTDFNAAFVSRLSISTEISESQVFFRMNSLQADDTAIYYCARNGPQYYFAMDYWGQGTSVTVSS
VL: DIVLTQSPASLTVSLGQRATISCRANKSVSTSGYSYMHWHQQKPGQPPKLLIYLASNLESGVPARFSGSGSGTDFTLNIHPVEEEDAATYYCQHSRELPLTFGAGTKLELK
Take B17: in experiment [1], the binding entry is on record as “binds”.

B18: CD137 #B17 (antibody, human IgG1, V domains shown)
VH: EVQLQQSGPELVKPGASVKMSCKASGYTFTYYVMHWVKQKPGQGLEWIGYINPYNDGTKYNEKFKGKATLTSDKSSSTAYMELSSLTSEDSAVYYCAPGSVDYWGQGTTLTVSS
VL: DIVMTQSQKFMSTSVGDRVSITCKASQNVGTSVAWYQQKSGHSPKLLIYSASNRNTGVPDRFTGSGSGTDFTLTISNMQSEDLADYFCQQYSTYPLTFGSGTKLEIK
B18: in experiment [1], the binding entry is “binds”.

B19: CD137 #B20 (antibody, human IgG1, V domains shown)
VH: EVKLVESEGGLVQPGSSMKLSCTASGFTFSDFYMAWVRQVPEKGLEWVANINYDGSSTYYLDSLKSRFIISRDNARNILYLQMSSLKSEDTATYYCAREGDEGWYFDVWGAGTTVTVSS
VL: DIVMTQSHKFMSTSVGDRVSITCKASQDVSTAVAWYQQKPGQSPKLLIYSASYRYTGVPDRFTGSGSGTDFTFTISSVQAEDLAVYYCQQHYSNPWTFGGGTKLEIK
Regarding B19, in experiment [1], the binding entry is reported as “binds”.

B20: CD137 #B21 (antibody, human IgG1, V domains shown)
VH: EVKLVESEGGLVQPGSSMKLSCTASGFTFSDFYMAWVRQVPEKGLEWVANINYDGSSTYYLDSLKSRFIISRDNARNILYLQMSSLKSEDTATYYCAREGDEGWYFDVWGAGTTVTVSS
VL: DIVMTQSHKFMSTSVGDRVSITCKASQDVSTAVAWYQQKPGQSPKLLIYSASYRYTGVPDRFTGSGSGTDFTFTISSVQAEDLAVYYCQQHYSNPWTFGGGTKLEIK
For B20, the binding entry in experiment [1] was “binds”.
